The supplement of paper PMC8104966
This is one part of the list. This data set is noisy: repeats of one test often differ as much as different tests do.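 Fusion between ACE2-bearing and full-length-spike-bearing U2OS cells was measured by imaging as the percentage of nuclei with both cell types' fluorescent markers. An inhibitory hit is a non-toxic compound whose fusion z-score is below -3, more than three standard deviations beneath the plate's DMSO wells.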

Tested on: U2OS ACE2 x SARS-CoV-2 spike co-culture
Test: cell-cell fusion (fraction fused) z-score vs plate DMSO control; higher = more fusion
Settings: 30 µM; 5 h; toxicity class: non-toxic, passed QC

Row | Structure (SMILES) | cell-cell fusion (z-score)
1 | COc1ccc(C(=O)c2ccccc2)c(O)c1O | inactive: 2.14
2 | CC1[C@H](C)OC(=O)CC(O)CC(O)CC(O)CCC(O)C(O)C[C@]2(O)CC(O)C(C(=O)O)C(CC(OC3O[C@H](C)[C@@H](O)[C@H](N)[C@@H]3O)/C=C/C=C/C=C/C=C/CC/C=C/C=C/[C@H](C)[C@H]1O)O2 (some centres not stated) | inactive: 2.66
3 | C[C@]12CC[C@@H]3c4ccc(O)cc4CC[C@H]3[C@@H]1CCC2=O [Aquacrine] | inactive: 1.33
4 | CCN(CC)CCCC(C)Nc1c2ccc(Cl)cc2nc2ccc(OC)cc12.Cl.Cl (configuration not stated) [Quinacrine dihydrochloride] | inactive: 0.792
5 | Nc1ccn(C[C@@H](CO)OCP(=O)(O)O)c(=O)n1 [Cidofovir] | inactive: -0.258
6 | C[C@]12CC[C@@H]3c4ccc(O)cc4CC[C@H]3[C@@H]1CC[C@@H]2O [Estradiol] | inactive: 0.966
7 | CCn1cc(C(=O)[O-])c(=O)c2ccc(C)nc21.[Na+] [Nalidixic acid sodium salt] | inactive: 2.93
8 | CCCC(CCC)C(=O)[O-].[Na+] [Valproic acid sodium salt] | inactive: 2.09
9 | CCCC(CCC)C(=O)[O-].[Na+] | inactive: 1.11
10 | CCCC(CCC)C(=O)[O-].[Na+] [Valproic acid sodium] | inactive: 2.56
11 | Br.CN1CCC[C@@H]1Cc1c[nH]c2ccc(CCS(=O)(=O)c3ccccc3)cc12 [Eletriptan] | inactive: 3.22
12 | O=C(O)/C=C/C=C/c1ccc2c(c1)OCO2 | inactive: 1.97
13 | COCc1nc2c(=O)n(C)c(=O)n(CC(C)C)c2[nH]1 [8-Methoxymethyl-3-isobutyl-1-methylxanthine] | inactive: 2.09
14 | COc1cc(OC)c2ccc(=O)oc2c1 | inactive: 1.99
15 | Cc1ccccc1N1C(=O)c2cc(S(=O)ON)c(Cl)cc2NC1C (configuration not stated) [Metolazone] | inactive: 2.39
16 | Br.CN1C2CC[C@H]1C[C@@H](OC(=O)C(O)c1ccccc1)C2 (some centres not stated) | inactive: 1.22
17 | OC(Cn1cncn1)(Cn1cncn1)c1ccc(F)cc1F [Fluconazole] | inactive: 2.57
18 | O=C1C(O)=C([C@H]2CC[C@H](c3ccc(Cl)cc3)CC2)C(=O)c2ccccc21 | inactive: 0.767
19 | CN(C)CC/C=C1/c2ccccc2Sc2ccc(Cl)cc21 [Chlorprothixene] | inactive: 1.93
20 | C[C@@H](N)[C@H]1CC[C@H](C(=O)Nc2ccncc2)CC1.Cl.Cl | inactive: 1.61
21 | NC/C=C\C(=O)O [cis-4-Aminocrotonic acid] | inactive: 2.6
22 | COc1cc(C)c2c(c1C=O)Oc1c(c(C)c(O)c3c1C(O)OC3=O)OC2=O (configuration not stated) | inactive: 2.02
23 | CC(=O)O[C@H]1C(=O)[C@@]2(C)C([C@H](OC(=O)c3ccccc3)[C@]3(O)C[C@H](O)C(C)=C1C3(C)C)[C@]1(OC(C)=O)CO[C@@H]1C[C@@H]2O (some centres not stated) | inactive: 2.35
24 | C=C1C[C@H]2[C@@H]3CCC4=CC(=O)CC[C@@H]4[C@H]3CC[C@]2(C)[C@@]1(OC(C)=O)C(C)=O [Nestoron] | inactive: 2.7

Individual results from the results shown:
CC1[C@H](C)OC(=O)CC(O)CC(O)CC(O)CCC(O)C(O)C[C@]2(O)CC(O)C(C(=O)O)C(CC(OC3O[C@H](C)[C@@H](O)[C@H](N)[C@@H]3O)/C=C/C=C/C=C/C=C/CC/C=C/C=C/[C@H](C)[C@H]1O)O2 (some centres not stated) | cell-cell fusion (z-score): inactive: 2.66
CCn1cc(C(=O)[O-])c(=O)c2ccc(C)nc21.[Na+] [Nalidixic acid sodium salt] | cell-cell fusion (z-score): inactive: 2.93
CN(C)CC/C=C1/c2ccccc2Sc2ccc(Cl)cc21 [Chlorprothixene] | cell-cell fusion (z-score): inactive: 1.93
O=C1C(O)=C([C@H]2CC[C@H](c3ccc(Cl)cc3)CC2)C(=O)c2ccccc21 | cell-cell fusion (z-score): inactive: 0.767

(next part)

Row | Structure (SMILES) | cell-cell fusion (z-score)
25 | Cl.Clc1ccc2nsnc2c1NC1=NCCN1 [Tizanidine hydrochloride] | inactive: 2.75
26 | CCNC(=O)[C@H]1O[C@@H](n2cnc3c(N)ncnc32)C(O)[C@H]1O (some centres not stated) [5'-N-Ethylcarboxamidoadenosine] | inactive: 2.03
27 | Cc1cccc(C)c1OCC(C)N.Cl (configuration not stated) | inactive: 1.93
28 | Cc1cccc(C)c1OCC(C)N.Cl (configuration not stated) [Mexiletene hydrochloride] | inactive: 2.46
29 | CC(=O)O[C@@]1(C(C)=O)CC[C@H]2[C@@H]3C=C(C)C4=CC(=O)CC[C@]4(C)[C@@H]3CC[C@@]21C [Megestrol Acetate] | inactive: 1.42
30 | C/C(=C\C(=O)Nc1ccccc1C(=O)O)c1ccc2ccccc2c1 | inactive: -1.23
31 | CC(C)N(CCC(C(N)=O)(c1ccccc1)c1ccccn1)C(C)C (configuration not stated) [Disopyramide] | inactive: 2.02
32 | CC(C)(N)CO.Cn1c(=O)c2[nH]c(Br)nc2n(C)c1=O | inactive: 2.49
33 | COc1c(-c2ccccc2)oc2cc(O)cc(O)c2c1=O | inactive: 2.87
34 | CS(=O)(=O)N1CCc2c(-c3cnc(N)nc3)nc(N3CCOCC3)nc21 | inactive: 1.29
35 | CC(C)(C(=O)c1cccnc1)c1cccnc1 | inactive: 2.78
36 | CC(C)c1nc(N(C)S(C)(=O)=O)nc(-c2ccc(F)cc2)c1/C=C/[C@@H](O)C[C@@H](O)CC(=O)O [Rosuvastatin] | inactive: -1.18
37 | CC1(C)C=Cc2c(c3c(c4c(=O)c(-c5ccc(O)cc5)coc24)OC(C)(C)CC3)O1 | inactive: 1.27
38 | C#C[C@]1(O)CC[C@H]2[C@@H]3CCC4=CC(=O)CC[C@@H]4[C@H]3CC[C@@]21CC [Levonorgestrel] | inactive: 2.14
39 | Cl.O=C1CN2Cc3c(ccc(Cl)c3Cl)N=C2N1 | inactive: -0.473
40 | CC1CCC2(OC1)OC1CC3C4CC[C@H]5C[C@@H](O)CC[C@]5(C)C4CC(=O)[C@]3(C)C1C2C (some centres not stated) | inactive: 2.42
41 | CN(C(=O)CN(CCO)CC(=O)N(C)C(C)(C)Cc1ccccc1)C(C)(C)Cc1ccccc1 | inactive: 0.483
42 | CC(C)=CCc1c2c(c3occ(-c4ccc(O)cc4)c(=O)c3c1O)C=CC(C)(C)O2 | inactive: 3.04
43 | O=NN(CCCl)C(=O)NC1CCCCC1 [Lomustine] | inactive: 2.51
44 | O=c1oc2cc(O)ccc2s1 | inactive: 1.29
45 | COc1cc(O)c(C(=O)/C=C/c2ccc(OC)c(O)c2)c(OC)c1 | inactive: 2.14
46 | C[C@]12CCC(=O)C=C1CC[C@@H]1[C@@H]2CC[C@@]2(C)[C@H]1CC[C@]2(O)C(=O)CO [Cortexolone] | inactive: 1.37
47 | COc1ccc(COc2cc3oc(=O)c4cc(C(C)O)ccc4c3cc2OC)cc1 (configuration not stated) [Palomid 529] | inactive: 1.53
